Measured values: publication PMC4764768

Protein sequences, listed by entry. Tags and fused reporters are not part of them.
UniProt Q5K651: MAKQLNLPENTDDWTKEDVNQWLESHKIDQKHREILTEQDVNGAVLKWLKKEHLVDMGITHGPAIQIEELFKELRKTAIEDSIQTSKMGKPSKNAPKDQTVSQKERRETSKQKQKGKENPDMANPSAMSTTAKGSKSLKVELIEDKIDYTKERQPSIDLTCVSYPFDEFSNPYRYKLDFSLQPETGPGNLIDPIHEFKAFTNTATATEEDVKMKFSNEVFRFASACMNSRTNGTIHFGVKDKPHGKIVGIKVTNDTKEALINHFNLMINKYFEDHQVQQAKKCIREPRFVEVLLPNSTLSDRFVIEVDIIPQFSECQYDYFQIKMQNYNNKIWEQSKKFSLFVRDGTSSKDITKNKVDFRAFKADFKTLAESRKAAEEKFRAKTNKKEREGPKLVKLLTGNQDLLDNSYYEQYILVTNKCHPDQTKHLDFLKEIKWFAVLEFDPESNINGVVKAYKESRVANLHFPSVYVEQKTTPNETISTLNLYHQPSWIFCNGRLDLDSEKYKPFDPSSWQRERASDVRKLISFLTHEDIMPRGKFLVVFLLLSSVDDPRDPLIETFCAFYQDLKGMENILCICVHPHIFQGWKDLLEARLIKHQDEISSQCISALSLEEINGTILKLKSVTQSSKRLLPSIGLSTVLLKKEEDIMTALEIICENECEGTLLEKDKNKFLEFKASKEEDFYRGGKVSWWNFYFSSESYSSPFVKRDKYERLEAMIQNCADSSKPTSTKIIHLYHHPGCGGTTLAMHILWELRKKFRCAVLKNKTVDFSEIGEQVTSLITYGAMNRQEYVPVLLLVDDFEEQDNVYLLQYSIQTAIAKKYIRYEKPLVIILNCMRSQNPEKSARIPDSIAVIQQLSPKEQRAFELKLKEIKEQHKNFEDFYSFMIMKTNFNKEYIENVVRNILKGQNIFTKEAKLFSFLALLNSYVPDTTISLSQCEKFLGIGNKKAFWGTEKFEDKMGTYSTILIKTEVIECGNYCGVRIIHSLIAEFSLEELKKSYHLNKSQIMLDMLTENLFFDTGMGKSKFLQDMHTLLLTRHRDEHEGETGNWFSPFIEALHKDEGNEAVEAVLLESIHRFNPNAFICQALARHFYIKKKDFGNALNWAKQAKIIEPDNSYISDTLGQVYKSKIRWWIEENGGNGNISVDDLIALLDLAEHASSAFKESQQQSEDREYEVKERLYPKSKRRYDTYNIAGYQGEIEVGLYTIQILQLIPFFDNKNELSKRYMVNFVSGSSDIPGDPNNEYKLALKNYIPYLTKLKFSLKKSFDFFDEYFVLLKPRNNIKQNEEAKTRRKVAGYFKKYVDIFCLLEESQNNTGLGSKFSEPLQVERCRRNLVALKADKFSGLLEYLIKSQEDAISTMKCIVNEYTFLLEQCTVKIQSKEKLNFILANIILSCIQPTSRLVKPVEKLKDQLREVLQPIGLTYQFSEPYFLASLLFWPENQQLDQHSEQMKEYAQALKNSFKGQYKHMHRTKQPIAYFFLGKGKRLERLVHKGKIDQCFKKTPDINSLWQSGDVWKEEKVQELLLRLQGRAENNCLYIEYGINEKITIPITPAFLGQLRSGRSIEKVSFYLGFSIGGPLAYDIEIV

Target: T1, GST-11E6 (HPV-11 E6 protein fused with GST at the N-terminus) (human papillomavirus type 11) (UniProt P04019)
T1 sequence: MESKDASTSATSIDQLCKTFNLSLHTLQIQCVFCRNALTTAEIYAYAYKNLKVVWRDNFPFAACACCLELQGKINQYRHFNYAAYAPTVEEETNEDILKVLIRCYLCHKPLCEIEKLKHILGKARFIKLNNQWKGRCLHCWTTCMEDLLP
Test: affinity purification with mass spectrometry; only the target purified

Substance: sterile α motif domain containing 9 (SAMD9), endogenous in N/TERT-1 keratinocytes (from UniProt Q5K651 1-1589)
- binding: binds

Results are given in words; binding and its absence hold for the method and conditions named. Binding seen in cells or lysates may run through a third protein. A yes stands for co-enrichment or nearness to the bait. Other partners may have been found. Where a sequence is shown, tags or fusion partners need not be part of it.
